The test has as its system P388 leukemia ip, CD2F1 mice, survival T/C. In words: NCI In Vivo Anticancer Drug Screen. Data for tumor model P388 Leukemia (intraperitoneal) in CD2F1 (CDF1) mice. As to conditions: T/C endpoint: median survival time, higher T/C = longer survival.
Where [1] appears, read: dose: 400.0 mg/kg/injection, schedule: Q04DX003 (ip), vehicle: Klucel (hydroxypropylcellulose) (HPC).
Where [2] appears, read: dose: 100.0 mg/kg/injection, schedule: Q01DX005 (ip), vehicle: saline with Tween-80.
Where [3] appears, read: dose: 200.0 mg/kg/injection, schedule: Q01DX005 (ip), vehicle: saline with Tween-80.
Setting [4] is: dose: 60.0 mg/kg/injection, schedule: Q01DX005 (ip), vehicle: saline with Tween-80.
[5] abbreviates: dose: 120.0 mg/kg/injection, schedule: Q01DX005 (ip), vehicle: saline with Tween-80.
Where [6] appears, read: dose: 240.0 mg/kg/injection, schedule: Q01DX005 (ip), vehicle: saline with Tween-80.
Setting [7] is: dose: 120.0 mg/kg/injection, schedule: Q01DX005 (ip), vehicle: Klucel (hydroxypropylcellulose) (HPC).
The mark [8] stands for this setting: dose: 240.0 mg/kg/injection, schedule: Q01DX005 (ip), vehicle: Klucel (hydroxypropylcellulose) (HPC).
Setting [9] is: dose: 200.0 mg/kg/injection, schedule: Q04DX003 (ip), vehicle: saline.
[10] abbreviates: dose: 400.0 mg/kg/injection, schedule: Q04DX003 (ip), vehicle: saline.
[11] abbreviates: dose: 50.0 mg/kg/injection, schedule: Q01DX005 (ip), vehicle: Klucel (hydroxypropylcellulose) (HPC).
Where [12] appears, read: dose: 100.0 mg/kg/injection, schedule: Q01DX005 (ip), vehicle: Klucel (hydroxypropylcellulose) (HPC).
The mark [13] stands for this setting: dose: 100.0 mg/kg/injection, schedule: Q01DX009 (ip), vehicle: saline.
The mark [14] stands for this setting: dose: 200.0 mg/kg/injection, schedule: Q01DX009 (ip), vehicle: saline.
[15] abbreviates: dose: 200.0 mg/kg/injection, schedule: Q04DX003 (ip), vehicle: Klucel (hydroxypropylcellulose) (HPC).

The structures appear in SMILES notation. The list does not hold the whole screen: it gathers tests that were run many times, whatever their T/C, doses with no T/C, and many T/C values between a quarter and a half above the control. Further doses and runs are listed elsewhere. T/C: endpoint of the treated group in % of that of the vehicle group. Some entries give survivors of the animals treated and no T/C: the source holds a T/C of zero for them, seemingly a mark for toxic or unscored doses. Some doses without a T/C left all or most animals alive at the check, yet need not have been tolerated: survival well below the control is almost never listed, so the zero probably covers shortened survival too. Survivors were counted at the toxicity check, usually on the fifth day, unless a day is given; later deaths do not show. Schedule codes are those of the source, taken here to give the interval after Q, in days (D) or hours (H), and the number of doses after X. Some doses were run more than once; the results are listed from low to high. Where survival is the endpoint, the PubChem record calls one and a half times the control and up active, and a quarter to a half above the control has no call in these data; cut-offs in other NCI protocols can differ. Some T/C values carry the count of animals alive at the toxicity check (mostly the fifth day); where none is given, no animal had died by that day.

On to `CC12C=CC(C(C(=O)O)C1=O)C2(C)C` (centres undefined), for which, for the setting “dose: 400.0 mg/kg/injection, schedule: Q04DX002 (ip), vehicle: saline with Tween-80”, the survivor count was 3 of 6.
For the molecule `CC(C)C1C(=O)N(c2ccccc2)N(C)C1C` (centres undefined), the survivor count under setting [1] is on record as 3 of 6.
With `CC(C)C(=O)N1CCCCCCN1C(=O)C(C)C`, where the note is “dose: 400.0 mg/kg/injection, schedule: Q01DX009 (ip), vehicle: Klucel (hydroxypropylcellulose) (HPC)”, the survivor count is recorded as 0 of 6.
Regarding `Clc1ccccc1-n1cccc1/C=N\N=C/c1cccn1-c1ccccc1Cl`, the survivor count by setting is: (dose: 50.0 mg/kg/injection, schedule: Q01DX005 (ip), vehicle: saline with Tween-80) 6 of 6; under setting [2], 6 of 6.
On to `CCOC(=O)c1sc2nc(C)[nH]c(=O)c2c1C`, for which the survivor count reads like this: under setting [2], 6 of 6; under setting [3], 2 of 6.
Turning to `COc1ccc(C2=NN(C(C)=O)C(c3cc(OC)c(OC)cc3N)S2)cc1OC` (centres undefined) (tested in a mixture with another compound), the survivor count was 6 of 6 under setting [4], 6 of 6 under setting [5] and 6 of 6 under setting [6].
As for `C[N+]1(CCC(/C=C/c2ccc([N+](=O)[O-])cc2)=N\O)CCOCC1`, the survivor count runs as follows: under setting [4], 0 of 6; under setting [5], 0 of 6; under setting [6], 0 of 6.
With `CN(C)C1=CC(=Nc2ccccc2)SC(C)(C)C1`, the survivor count runs as follows: under setting [7], 0 of 6; under setting [8], 0 of 6.
Consider `O=C1CN(Cc2cccc(Cl)c2)CC(=O)N2Cc3ccccc3CN12`, for which the survivor count under setting [3] is recorded as 5 of 5.
With `C[n+]1cccc2ccccc21`, the survivor count by setting is: under setting [9], 0 of 6; under setting [10], 0 of 6.
Take `O=S(=O)(O)O.[Cu+2].[NH-]CCC[N-]CCCC[N-]CCC[NH-]`: the T/C (dose: 25.0 mg/kg/injection, schedule: Q01DX001 (ip), vehicle: saline) is 129 % of control. Moreover, the survivor count is 1 of 6 and 2 of 6 (dose: 50.0 mg/kg/injection, schedule: Q01DX001 (ip), vehicle: saline); 0 of 6 (dose: 100.0 mg/kg/injection, schedule: Q01DX001 (ip), vehicle: saline); 0 of 6 (dose: 200.0 mg/kg/injection, schedule: Q01DX001 (ip), vehicle: saline).
Turning to `C=C1C(=O)OC2C1C(O)C(OC(=O)/C(C)=C/C)C(C)C1C(=O)C=C(C)C21` (centres undefined), the survivor count under setting [11] was 5 of 6 and the survivor count under setting [12] was 2 of 6.
Take `CCCOC1NC(=O)Oc2ccccc21` (centres undefined): the T/C under setting [6] is 147 % of control [5 of 6 alive]. The survivor count (dose: 480.0 mg/kg/injection, schedule: Q01DX005 (ip), vehicle: saline with Tween-80) is 2 of 6 and 3 of 6.
Take `CCCCCCCC[N+]1(CC)CCCC1`: the survivor count was 0 of 6 (dose: 50.0 mg/kg/injection, schedule: Q01DX009 (ip), vehicle: saline); 0 of 6 under setting [13]; 0 of 6 under setting [14].
As to `Cc1cc(C)c(C(CC(=O)O)C(CC(=O)O)c2c(C)cc(C)cc2C)c(C)c1` (centres undefined), the survivor count under setting [7] is 6 of 6 and the survivor count under setting [8] is recorded as 5 of 6.
Consider `COc1cc(C(=O)NC2CCc3cc(OC)c(OC)c(OC)c3-c3ccc(OC)c(=O)cc32)cc(OC)c1OC` (centres undefined), for which the T/C reads like this: (dose: 5.0 mg/kg/injection, schedule: Q01DX009 (ip), vehicle: Klucel (hydroxypropylcellulose) (HPC), evaluated on day 30) 144 % of control; (dose: 5.0 mg/kg/injection, schedule: Q01DX009 (ip), vehicle: Klucel (hydroxypropylcellulose) (HPC), evaluated on day 35) 128 % of control. Moreover, the survivor count (dose: 40.0 mg/kg/injection, schedule: Q01DX009 (ip), vehicle: Klucel (hydroxypropylcellulose) (HPC)) was 3 of 6 and the survivor count (dose: 80.0 mg/kg/injection, schedule: Q01DX009 (ip), vehicle: Klucel (hydroxypropylcellulose) (HPC)) is 0 of 6.
Regarding `Cc1ccc2c(c1)C1(C)OC(C=CC1=O)O2` (centres undefined), the T/C runs as follows: (dose: 50.0 mg/kg/injection, schedule: Q04DX003 (ip), vehicle: Klucel (hydroxypropylcellulose) (HPC)) 129 % of control; (dose: 100.0 mg/kg/injection, schedule: Q04DX003 (ip), vehicle: Klucel (hydroxypropylcellulose) (HPC)) 125 % of control; under setting [15], 128 % of control [5 of 6 alive]. Further, the survivor count by setting is: under setting [15], 0 of 6; under setting [1], 0 of 6.
As for `NC(=NCc1ccncc1)N/N=C\c1ccnc2ccccc12`, the survivor count (dose: 240.0 mg/kg/injection, schedule: Q01DX005 (ip), vehicle: saline) is reported as 0 of 6.
Turning to `COc1ccc(NC(=O)C(Cl)Cl)ccc1=O`, the survivor count is, setting by setting: (dose: 100.0 mg/kg/injection, schedule: Q01DX009 (ip), vehicle: saline with Tween-80) 5 of 6; (dose: 200.0 mg/kg/injection, schedule: Q01DX009 (ip), vehicle: saline with Tween-80) 3 of 6.
With `CCNc1snc2c1c(=O)[nH]c(=O)n2Cc1ccccc1`, the survivor count is, setting by setting: under setting [13], 6 of 6; under setting [14], 6 of 6.
As for `O=c1[nH]c(=O)c2cc([N+](=O)[O-])cc([N+](=O)[O-])c2[nH]1`, the survivor count is 6 of 6 under setting [9] and 1 of 6 under setting [10].
Turning to `Cc1nn(C(=O)c2cccnc2)c(-c2ccccc2)c1N=Nc1ccc(C(=O)O)cc1`, under setting [3], the survivor count was 6 of 6.
As to `CC(=O)Nc1c2sscc-2n(C)c1=O`, the survivor count by setting is: (dose: 3.13 mg/kg/injection, schedule: Q01DX009 (ip), vehicle: saline with Tween-80) 5 of 6; (dose: 6.25 mg/kg/injection, schedule: Q01DX009 (ip), vehicle: saline with Tween-80) 0 of 6; (dose: 12.5 mg/kg/injection, schedule: Q01DX009 (ip), vehicle: saline with Tween-80) 0 of 6; (dose: 25.0 mg/kg/injection, schedule: Q01DX009 (ip), vehicle: saline with Tween-80) 0 of 6.
For the molecule `CCN1C(Cl)=NS(=O)(=O)c2ccccc21`, the survivor count by setting is: under setting [4], 4 of 6; under setting [5], 1 of 6; under setting [6], 0 of 6.
In the case of `O=C1CC(Cl)(CS(F)(F)(F)(F)F)O1` (centres undefined), the survivor count is, setting by setting: (dose: 100.0 mg/kg/injection, schedule: Q01DX005 (ip), vehicle: saline + alcohol) 0 of 5; under setting [2], 0 of 5 and 2 of 5; under setting [3], 0 of 5.
As to `COP(=O)(CS(=O)(=O)Oc1ccc(S(C)(=O)=O)cc1)OC`, the survivor count is, setting by setting: under setting [11], 0 of 6; under setting [12], 0 of 6.
Consider `CNC(=O)OCc1cocc1COC(=O)NC`, for which, for the setting “dose: 200.0 mg/kg/injection, schedule: Q01DX009 (ip), vehicle: distilled water + Tween-80”, the survivor count is 0 of 6.
As for `CC1(C)N=C(N)N=C(N)N1c1ccc(OCCCNC(=O)Nc2cccc(S(=O)(=O)F)c2)c(Cl)c1`, the T/C (dose: 50.0 mg/kg/injection, schedule: Q04DX003 (ip), vehicle: saline with Tween-80) was 125 % of control; the T/C (dose: 66.0 mg/kg/injection, schedule: Q04DX003 (ip), vehicle: saline with Tween-80) is 129 % of control; the T/C (dose: 100.0 mg/kg/injection, schedule: Q04DX003 (ip), vehicle: saline with Tween-80) is 135 and 137 % of control [5 of 6 alive]. The survivor count is, setting by setting: (dose: 150.0 mg/kg/injection, schedule: Q04DX003 (ip), vehicle: saline with Tween-80) 6 of 6; (dose: 200.0 mg/kg/injection, schedule: Q04DX003 (ip), vehicle: saline with Tween-80) 0 of 6.
For the molecule `C=CCn1cc2c3c(cccc31)C1CC(C)CN(C)C1C2` (centres undefined), the survivor count under setting [3] is 0 of 6.
Take `CC(=O)CS(F)(F)(F)(F)F`: the survivor count is 0 of 5 under setting [2] and 0 of 5 under setting [3].

(Values after PubChem BioAssay AID330 (DTP/NCI, 2004).)
